Measured values: article PMC11554305, “Functional identification of soluble uric acid as an endogenous inhibitor of CD38” (eLife, 2024)

Assay: Tissue sUA levels in WT mice
Format: in vivo, mouse
Settings: 1-day treatment of saline

## O=c1[nH]c(=O)c2[nH]c(=O)[nH]c2[nH]1 [sUA, uric acid]
Brain
  Tissue sUA: 9.8 µmol/kg
Heart
  Tissue sUA: 25.2 µmol/kg
Ileum
  Tissue sUA: 226.2 µmol/kg
Kidney
  Tissue sUA: 26.0 µmol/kg
Liver
  Tissue sUA: 233.4 µmol/kg
Lung
  Tissue sUA: 364.6 µmol/kg
Skeletal Muscle
  Tissue sUA: 19.1 µmol/kg
Spleen
  Tissue sUA: 83.3 µmol/kg
